These are yes or no findings as the source states them, for the method shown. Binding seen in cells or lysates may run through a third protein. Binding can be weak; no strength is given.
Biological target: His-tagged PfeIF2γ recombinant protein (Plasmodium falciparum) (UniProt Q8ILY9)
Experiment: co-IP; Xenopus oocytes micro-injected with cRNA of the HA-tagged protein and then with the His-tagged recombinant protein; immunoprecipitation with anti-His or anti-HA, immunoblots with anti-His or anti-HA; only the target purified

By UniProt entry, the sequences of proteins in these tests, tags left out. Where a name states a change or a piece, a line headed by the entry shows the natural chain unless it says otherwise.
UniProt Q8ILY9: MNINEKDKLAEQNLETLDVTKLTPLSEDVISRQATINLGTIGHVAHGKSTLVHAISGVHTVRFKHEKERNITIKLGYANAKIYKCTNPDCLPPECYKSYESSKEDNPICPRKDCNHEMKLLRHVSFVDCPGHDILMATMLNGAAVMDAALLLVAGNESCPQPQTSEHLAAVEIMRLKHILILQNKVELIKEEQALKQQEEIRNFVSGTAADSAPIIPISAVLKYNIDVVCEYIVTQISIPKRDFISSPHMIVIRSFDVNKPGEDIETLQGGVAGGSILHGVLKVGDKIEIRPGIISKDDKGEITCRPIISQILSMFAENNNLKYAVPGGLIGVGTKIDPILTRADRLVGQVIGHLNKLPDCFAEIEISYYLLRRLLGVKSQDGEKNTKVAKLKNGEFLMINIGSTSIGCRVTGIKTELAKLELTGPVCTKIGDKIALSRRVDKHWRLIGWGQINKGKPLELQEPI
UniProt Q8IJT9: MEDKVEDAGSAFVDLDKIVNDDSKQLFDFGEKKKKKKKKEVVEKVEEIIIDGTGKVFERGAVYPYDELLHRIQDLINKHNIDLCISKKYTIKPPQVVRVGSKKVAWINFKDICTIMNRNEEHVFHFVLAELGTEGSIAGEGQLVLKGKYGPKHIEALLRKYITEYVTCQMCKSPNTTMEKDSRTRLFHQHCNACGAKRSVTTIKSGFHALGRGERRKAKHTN

In the case of “HA-PfeIF2β expressed in Xenopus oocytes from micro-injected cRNA (from UniProt Q8IJT9)”, the binding is reported as “binds”.

Source: article PMC4881399
